In patent US20150017665A1, “Peptides and Methods for Detecting MPO-ANCA” (The University of North Carolina at Chapel Hill, priority 2012, published 2015):

Tested on: MPO-ANCA
Test: Linear versus conformational epitopes: epitope excision MS with pre-digested MPO
Type: binding, human
[1] = loss of reactivity with pre-digested MPO = conformational, Table 1

Row | Substance | Epitope Structure (Table 6) | Epitope Structure [1]
1 | DHGLPGYNAWR (listed as Homo sapiens) [aa593-603] | Conformational | Conformational
2 | FCGLPQPETVGQLGT (listed as Homo sapiens) [aa605-622] | Conformational | Conformational
3 | FPTDQLTPDQER (listed as Homo sapiens) [aa237-248] | Linear | Linear
4 | FQDNGR (listed as Homo sapiens) [aa369-374] | Conformational | Conformational
5 | FWWENEGVFSMQQR (listed as Homo sapiens) [aa678-691] | Conformational | Conformational
6 | IANVFTNAFR (listed as Homo sapiens) [aa490-499] | Conformational | Conformational
7 | IGLDLPALNMQR (listed as Homo sapiens) [aa579-590] | Linear | Linear
8 | IPCFLAGDTR (listed as Homo sapiens) [aa396-405] | Conformational | Conformational
9 | KYLPTYR (listed as Homo sapiens) [aa474-480] | Conformational | Conformational
10 | LFEQVMR (listed as Homo sapiens) [aa572-578] | Conformational | Conformational
11 | LYQEAR (listed as Homo sapiens) [aa442-447] | Conformational | Conformational
12 | NGFPVALAR (listed as Homo sapiens) [aa220-228] | Conformational | Conformational
13 | NNIFMSNTYPR (listed as Homo sapiens) [aa715-725] | Conformational | Conformational
14 | NQINALTSFVDASMV (listed as Homo sapiens) [aa328-351] | Conformational | Conformational
15 | QALAQISLPR (listed as Homo sapiens) [aa692-701] | Conformational | Conformational
16 | QNQIAVDEIR (listed as Homo sapiens) [aa560-571] | Conformational | Conformational
17 | RDYLPLVLGPTAMR (listed as Homo sapiens) [aa460-473] | Conformational | Conformational
18 | RKIVGAMVQIITY (listed as Homo sapiens) [aa447-459] | Linear | Linear
19 | RSPTLGASNR (listed as Homo sapiens) [aa184-193] | Conformational | Conformational
20 | VFFASWR (listed as Homo sapiens) [aa530-536] | Linear | Linear
21 | VGPLLACI (listed as Homo sapiens) [aa657-664] | Conformational | Conformational
22 | VVLEGGIDPILR (listed as Homo sapiens) [aa537-548] | Conformational | Conformational
23 | WDGER (listed as Homo sapiens) [aa437-441] | Conformational | Conformational
24 | WLPAEYEDGFSLPYG (listed as Homo sapiens) [aa198-219] | Conformational | Conformational
25 | YQPMEPNPR (listed as Homo sapiens) [aa516-524] | Linear | Linear
